Binding data for 2 substances are collected here from article PMC3731213.

Amino acid sequences for entries named in this document (tags omitted).
UniProt P20009: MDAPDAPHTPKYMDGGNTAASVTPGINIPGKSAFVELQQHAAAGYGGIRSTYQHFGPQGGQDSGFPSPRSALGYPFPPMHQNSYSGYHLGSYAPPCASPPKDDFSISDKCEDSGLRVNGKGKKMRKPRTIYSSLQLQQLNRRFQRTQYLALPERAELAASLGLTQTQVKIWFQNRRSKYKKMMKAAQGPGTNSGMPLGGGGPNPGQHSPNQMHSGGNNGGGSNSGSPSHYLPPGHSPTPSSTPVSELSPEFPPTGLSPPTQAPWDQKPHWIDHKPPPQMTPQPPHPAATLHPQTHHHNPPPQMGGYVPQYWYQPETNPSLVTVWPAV

Assay [1] deals with Zif Zinc-finger protein (ZIF, also called CG10267) (D. melanogaster) (UniProt Q9VI24). As to the kind of experiment: pull-down; modified LUMIER/LuMPIS: one partner fused to MBP, the other to Renilla luciferase, each made in a purified prokaryotic in vitro expression system and then combined; IP buffer (150 mM NaCl, 50 mM Tris pH 7.4), 4°C, 2 h; MBP-tagged protein isolated on amylose resin blocked with 5 percent BSA; luciferase retained relative to unfused luc gives the luminescence intensity ratio (LIR), cutoff 7 for positive; each pair in both configurations; duplicates.

In assay [2] the target is Distal-less (DLL) (D. melanogaster) (UniProt P20009). Described as above.

These are yes or no findings as the source states them, for the method shown. In cells and extracts the contact can be indirect. Binding calls can cover weak binding; strength is not graded here.

Take “Distal-less (DLL) (from UniProt P20009 1-327)”: in assay [1], the binding result is listed as “binds”. Regarding “Zif Zinc-finger protein (ZIF, also called CG10267) (from UniProt Q9VI24)”, the binding entry in assay [2] is listed as “binds”.
